The values that follow come from the supplement of paper PMC10735217.

The subject of the assay is HEK293A TEAD-LUC reporter. The assay is described as follows: TEAD-luciferase reporter activity (YAP activation), robust Z score vs plate; higher = stronger YAP/TEAD activation. As to conditions: 24 h. For orientation: A reporter such as luciferase makes a cellular process visible.

Where a name gives a salt, the structure may show the parent alone. Some of the results follow. Repeats in this data set agree poorly, so a single value says little.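 Human kidney-derived cells stably carry a construct in which eight TEAD-binding elements drive luciferase, measured by luminescence in a drug-repurposing library screen. A hit is any compound whose signal exceeds the plate mean by more than five robust Z scores.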

As to `CCCc1ncc(C(=O)O)s1`, the TEAD-luciferase reporter activity reads like this: (compound concentration: 200 nM) inactive: -0.533; (compound concentration: 2 uM) inactive: -0.552; (compound concentration: 10 uM) inactive: 1.19.
For `NC[C@@H]1O[C@@H](O[C@@H]2[C@@H](O[C@@H]3O[C@H](CO)[C@@H](O)[C@H]3O)[C@H](O)[C@@H](N)C[C@H]2N)[C@@H](N)[C@H](O)[C@H]1O` [Ribostamycin Sulfate], in that order: inactive: 3.82, inactive: -1.07 and inactive: -0.543.
`CN(C)CCCNc1c2ccccc2nc2cccc([N+](=O)[O-])c12`: the TEAD-luciferase reporter activity (compound concentration: 200 nM) is inactive: -1.4, the TEAD-luciferase reporter activity (compound concentration: 2 uM) is inactive: -3.38 and the TEAD-luciferase reporter activity (compound concentration: 10 uM) was inactive: -2.79.
For `C[C@@H]1CCCN1CCc1cc2cc(-c3ccc(C#N)cc3)ccc2o1`, in that order: inactive: 0.334, inactive: 0.525 and inactive: -0.516.
Take `C[C@@H](C(=O)O)c1ccc2cc(OCc3ccc4ccccc4n3)ccc2c1`: the TEAD-luciferase reporter activity is inactive: -1.08 (compound concentration: 200 nM), inactive: 0.0303 (compound concentration: 2 uM) and inactive: -0.14 (compound concentration: 10 uM).
As to `N#C[C@@H]1C[C@@H]2C[C@@H]2N1C(=O)[C@@H](N)[C@@]12C[C@@H]3C[C@@H](C[C@@](O)(C3)C1)C2` [saxagliptin], the TEAD-luciferase reporter activity (compound concentration: 2 uM) is inactive: -1.53.
For `CC(=O)c1ccc(NS(C)(=O)=O)c(Oc2ccc(F)cc2F)c1`, the TEAD-luciferase reporter activity reads like this: (compound concentration: 200 nM) inactive: 0.816; (compound concentration: 2 uM) inactive: -1.38; (compound concentration: 10 uM) inactive: -0.567.
On the same counts, the results for `COc1cc(C(=O)OCCN2CCN(CCCN3c4ccccc4Sc4ccc(Cl)cc43)CC2)cc(OC)c1OC` are inactive: -1.3, inactive: -0.917 and inactive: -0.185.
For `Cc1ccc(-c2nc(C#N)c(C#N)[nH]2)cc1`, in that order: inactive: -1.57, inactive: -0.353 and inactive: 1.04.
On the same counts, the results for `CC[C@H](C)[C@H](NC(=O)[C@@H](N)CCCNC(=N)N)C(=O)N[C@H](C(=O)N1CCC[C@H]1C(=O)N[C@@H](C)C(N)=O)C(C)C` [dusquetide] are inactive: -2.26, inactive: -0.281 and inactive: -0.744.
Regarding `CN(C)CCN(Cc1ccccc1)c1ccccc1`, the TEAD-luciferase reporter activity is, setting by setting: (compound concentration: 200 nM) inactive: 0.937; (compound concentration: 2 uM) inactive: 0.751; (compound concentration: 10 uM) inactive: -0.682.
As to `CCCCCC(/C=C/n1ccnc1)OCc1ccccc1` (configuration not stated) [midazogrel], the TEAD-luciferase reporter activity by setting is: (compound concentration: 200 nM) inactive: 4.26; (compound concentration: 2 uM) inactive: -1.31; (compound concentration: 10 uM) inactive: -1.19.
On the same counts, the results for `CCOC(=O)c1ncc2[nH]c3cccc(OC(C)C)c3c2c1COC` are inactive: -0.775, inactive: 1.74 and inactive: -0.632.
As to `CN1CCCC(CN2c3ccccc3Sc3ccccc32)C1` (configuration not stated) [Mepazine], the TEAD-luciferase reporter activity is inactive: -0.455 (compound concentration: 200 nM) and inactive: -0.684 (compound concentration: 10 uM).
For `CN(C(=O)c1cc2ccccc2cc1C(=O)C(c1cccc2ccccc12)P(=O)(O)O)C1CCN(C(=O)c2ccc3ccccc3c2)CC1` (configuration not stated), the TEAD-luciferase reporter activity is inactive: -1.04 (compound concentration: 200 nM), inactive: 2 (compound concentration: 2 uM) and inactive: -1.62 (compound concentration: 10 uM).
On the same counts, the results for `C=C(COC(=O)NC)COC(=O)NC` are inactive: 0.867, inactive: -0.976 and inactive: -0.323.
On the same counts, the results for `CCCCCCCCCCCCCCCC=O` [palmitoyl collagenic acid] are inactive: -0.409, inactive: -1.41 and inactive: 0.51.
For `COc1cc(N)c(Cl)cc1C(=O)N[C@@H]1CCN(CCC(=O)Nc2cccc3ncccc23)C[C@@H]1OC`, in that order: inactive: -1.17, inactive: -1.47 and inactive: 0.239.
For `COc1ccc(C[C@@H](C)[C@@H](C)Cc2ccc(OC)c(OC)c2)cc1OC` [terameprocol], the TEAD-luciferase reporter activity (compound concentration: 200 nM) is inactive: -0.0798, the TEAD-luciferase reporter activity (compound concentration: 2 uM) was active: 5.01 and the TEAD-luciferase reporter activity (compound concentration: 10 uM) is inactive: -1.41.
For `CNC(=O)[C@H](C/C=C/c1ccc(N(C)c2ncccn2)cc1)NC(=O)c1ccccc1`, in that order: inactive: -0.826, inactive: -0.253 and inactive: -0.835.
For `CC1=NN(c2ccc(C)c(C)c2)C(=O)/C1=N\Nc1cccc(-c2cccc(C(=O)O)c2)c1O` [eltrombopag olamine], in that order: inactive: -0.655, inactive: 0.302 and inactive: 2.38.
On the same counts, the results for `COc1cc2nc(N3CCN(C(=O)C4CCCC4)CC3)nc(N)c2cc1OC` are inactive: -1.32, inactive: -0.252 and inactive: -0.168.
On to `COc1ccc(NS(=O)(=O)c2ccc(N=Nc3ccc(O)c(C(=O)O)c3)cc2)nn1` [Salazodine], for which the TEAD-luciferase reporter activity (compound concentration: 200 nM) is inactive: 0.0355, the TEAD-luciferase reporter activity (compound concentration: 2 uM) is inactive: -1.2 and the TEAD-luciferase reporter activity (compound concentration: 10 uM) was inactive: 0.204.
On the same counts, the results for `CCCCn1c(=O)[nH]c(=O)c2c1ncn2CCC(C)C` are inactive: -0.724, inactive: -0.696 and inactive: -0.362.
On the same counts, the results for `CC[C@H](C)[C@@H](NC(=O)[C@@H](CCC(=O)O)NC(=O)[C@H](Cc1cnc[nH]1)NC(=O)[C@H](CC(C)C)NC(=O)[C@H](N)Cc1ccccc1)C(=O)N[C@H]1CCCCNC1=O` are inactive: -0.0979, inactive: -0.515 and inactive: -0.778.
For the compound `Cc1cc(N2C(=O)NC(=O)C2(C)C)cc(C)c1CCS(=O)(=O)N1CCC2(CC1)N=C(c1ccc(OC(F)(F)F)cc1)NC2=O`, the TEAD-luciferase reporter activity runs as follows: (compound concentration: 200 nM) inactive: -0.677; (compound concentration: 2 uM) inactive: -0.362; (compound concentration: 10 uM) inactive: -0.907.
On the same counts, the results for `CC(C)(C)c1ccc(C#Cc2ccc(C(=O)O)cc2)cc1OC1CCCCO1` (configuration not stated) are inactive: -1.04, inactive: -1.27 and inactive: 1.9.
On the same counts, the results for `Cc1nc2cnccc2n1CC1CCN(C(=O)/C=C(/c2ccccc2)c2ccc(/N=N/c3ccc(O)c(C(=O)O)c3)cc2)CC1` [Dersalazine] are inactive: -0.468, inactive: -0.563 and inactive: 1.74.
On the same counts, the results for `C[C@](Cc1c[nH]c2ccccc12)(NC(=O)OC1C2CC3CC(C2)CC1C3)C(=O)NC[C@H](NC(=O)CCC(=O)O)c1ccccc1` (some centres not stated) are inactive: -1.34, inactive: -1.73 and inactive: 2.51.
Consider `CC(=O)NCC1CN(c2ccc(OCC3(O)CCN(c4nc5c(cc4F)c(=O)c(C(=O)O)cn5C4CC4)CC3)c(F)c2)C(=O)O1` (configuration not stated), for which the TEAD-luciferase reporter activity (compound concentration: 200 nM) was inactive: -0.942, the TEAD-luciferase reporter activity (compound concentration: 2 uM) is inactive: 2.09 and the TEAD-luciferase reporter activity (compound concentration: 10 uM) is inactive: 0.287.
On the same counts, the results for `Cc1cccc(S(=O)(=O)Nc2ccc(C)n(CC(=O)NCCONC(=N)N)c2=O)c1` are inactive: 0.0326, inactive: 0.139 and inactive: 0.994.
For `CCCCN(CCCC)CCCOc1c(C)cc(C(=O)c2cc(=O)c3ccccc3o2)cc1C` [bucromarone], in that order: inactive: -0.52, inactive: -1.37 and inactive: -0.426.
Consider `O=C(O)Cc1ccc2c(c1)/C(=C/CN1CCC(Cc3ccccc3)CC1)c1ccccc1CO2`, for which the TEAD-luciferase reporter activity reads like this: (compound concentration: 200 nM) inactive: -0.671; (compound concentration: 2 uM) inactive: -0.756; (compound concentration: 10 uM) inactive: -0.712.
On the same counts, the results for `CC(C)(O)c1cn(-c2ccc(-c3cccc(S(C)(=O)=O)c3)cc2)c(C(C)(C)c2ccccc2Cl)n1` are inactive: 0.937, inactive: 0.23 and inactive: 0.266.
For `COc1ccc(C2=N[C@@H](c3ccc(Cl)cc3)[C@@H](c3ccc(Cl)cc3)N2C(=O)N2CCNC(=O)C2)c(OC(C)C)c1`, in that order: inactive: 1.01, inactive: -1.13 and inactive: 0.356.
Regarding `Cc1cc2c(s1)Nc1ccccc1N=C2N1CCN(C)CC1`, the TEAD-luciferase reporter activity is inactive: 3.87 (compound concentration: 200 nM) and inactive: -1.08 (compound concentration: 10 uM).
For the compound `Cc1cc2c(s1)Nc1ccccc1N=C2N1CCN(C)CC1` [Olanzapine], the TEAD-luciferase reporter activity (compound concentration: 2 uM) was inactive: -1.
Regarding `COc1ccc2[nH]c(C(=O)N3CC(C)CC(C)C3)cc2c1` (configuration not stated), the TEAD-luciferase reporter activity was inactive: -1.04 (compound concentration: 200 nM), inactive: -0.416 (compound concentration: 2 uM) and inactive: 1.23 (compound concentration: 10 uM).
On the same counts, the results for `CC1(C)SC2C(NC(=O)C(N)c3ccc(O)cc3)C(=O)N2C1C(=O)O` (configuration not stated) [amoxicillin, CSL] are inactive: 1.76, inactive: -0.159 and inactive: -0.173.
On to `CN1CC(=O)N(CCCC(=O)N2CCN(c3ccccc3)CC2)C1=O`, for which the TEAD-luciferase reporter activity (compound concentration: 200 nM) is inactive: -0.465, the TEAD-luciferase reporter activity (compound concentration: 2 uM) was inactive: 0.787 and the TEAD-luciferase reporter activity (compound concentration: 10 uM) was inactive: -1.22.
For `Cc1c(CN(C)C(=O)/C=C/c2cnc3c(c2)CNC(=O)[C@H](C)N3)oc2ccccc12` [Debio-1453], in that order: inactive: -0.203, inactive: -0.83 and inactive: -0.17.
In the case of `C[N+](C)(CCOc1ccccc1)Cc1ccccc1`, the TEAD-luciferase reporter activity runs as follows: (compound concentration: 200 nM) inactive: -2.52; (compound concentration: 2 uM) inactive: -1.48; (compound concentration: 10 uM) inactive: -0.882.
On the same counts, the results for `Cc1oc(-c2cccs2)nc1CCOc1ccc(CC2SC(=O)NC2=O)c2sccc12` (configuration not stated) are inactive: 0.569, inactive: -0.139 and inactive: 0.612.
Regarding `CCCCCCCC/N=C/N1CCC(C(c2ccccc2)c2ccccc2)CC1` [fenoctimine sulfate], the TEAD-luciferase reporter activity is, setting by setting: (compound concentration: 200 nM) inactive: 1.42; (compound concentration: 2 uM) inactive: -1.2; (compound concentration: 10 uM) inactive: -0.717.
On the same counts, the results for `CNC(=S)n1nc(-c2ccc(Cl)cc2)nc1N` [Pharmaprojects No. 4538] are inactive: -1.54, inactive: -0.172 and inactive: -0.948.
For `Cc1nn(-c2ncccc2CO)cc1CN1CCC2(CC1)OCC(F)(F)c1cc(Cl)sc12`, in that order: inactive: -0.686, inactive: 0.713 and inactive: 1.67.
Take `CC(=O)SCC(Cc1ccccc1)C(=O)NCC(=O)OCc1ccccc1` (configuration not stated) [dexecadotril]: the TEAD-luciferase reporter activity (compound concentration: 2 uM) is inactive: 1.89.
For `CC(=O)SCC(Cc1ccccc1)C(=O)NCC(=O)OCc1ccccc1` (configuration not stated), the TEAD-luciferase reporter activity by setting is: (compound concentration: 200 nM) inactive: -0.236; (compound concentration: 10 uM) active: 5.35.
As for `Cc1ccc(N(CC2=NCCN2)c2ccc(O)cc2)cc1` [phentolamine mesylate, Novalar], the TEAD-luciferase reporter activity is inactive: -1.44 (compound concentration: 200 nM), inactive: 0.192 (compound concentration: 2 uM) and inactive: 2.34 (compound concentration: 10 uM).
On the same counts, the results for `O=C1C(NS(=O)(=O)c2cc3ncccc3s2)CCN1Cc1cc2ccncc2[nH]1` (configuration not stated) are inactive: 0.929, inactive: -0.685 and inactive: 0.0304.
On the same counts, the results for `O=P(O)(O)O[C@H]1[C@H](OP(=O)(O)O)[C@@H](OP(=O)(O)O)[C@H](OP(=O)(O)O)[C@@H](OP(=O)(O)O)[C@H]1OP(=O)(O)O` [Sodium phytate] are inactive: -0.918, inactive: 0.206 and inactive: -0.915.
Take `CN(CCc1ccccc1)CC1CCCc2cc(O)ccc21` (configuration not stated): the TEAD-luciferase reporter activity reads like this: (compound concentration: 200 nM) inactive: -1.44; (compound concentration: 2 uM) inactive: -0.488; (compound concentration: 10 uM) inactive: 0.615.
